Measured values reported in patent publication US10010493B2, “Ester compound, and cosmetic component and cosmetic product each containing same” (Kokyu Alcohol Kogyo Co., Ltd., priority 2014, dated 2018).

Test: Odor judgement of TCD esters

| Structure (SMILES) | Odor |
| --- | --- |
| CC(=O)OCC1CC2CC1C1CCCC21 (centres unmarked) [Synthesis Example A, tricyclo[5.2.1.0^2,6]deca-8-yl-methyl acetate, reference compound] | strong odor |
| CC(C)C(=O)OCC1CC2CC1C1CCCC21 (centres unmarked) [TCDIB, tricyclo[5.2.1.0^2,6]deca-8-yl-methyl isobutanoate] | slight odor |
